The values below come from patent US20200023081A1 (The Board of Trustees of the Leland Stanford Junior …, priority 2018, published 2020).

HELM strings list residues between dots; [ac] is acetyl, [am] amide, other brackets name non-standard units.

The data set can be described thus: general procedure: peptide synthesis; EDC/NHS, DIPEA. The conditions noted are these: conjugation step.
As to CH-3c(RGDyk) [C135H161N33O29S2], the conjugation yield turned out to be 22.3%.

CH-PEG2-c(RGDfk) [C93H105N17O20S2] returned a conjugation yield of 80%.

On to CH-c(RADyk) [C82H85N15O15S2], for which the conjugation yield turned out to be 77%.

Consider CH-c(RGDfk) [C81H83N15O14S2], for which the conjugation yield worked out at 73%.

“PEPTIDE1{R.G.D.[dY].K}|CHEM1{[CH1055]}$PEPTIDE1,PEPTIDE1,1:R1-5:R2|PEPTIDE1,CHEM1,5:R3-1:R2$$$V2.0” registered a conjugation yield of 81%.
